PubChem BioAssay AID1259425, University of Nebraska Medical Center – 2018
Aim: 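Find knockdowns that reproduce the gene expression pattern seen when KSR1 is lost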 (primary screen). System: HCT116 human colon cancer cells. Reagents: siRNA pool against human genes, 50 nM siRNA. Measurement: 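mRNA of six signature genes measured together by branched-DNA assay after 50 nM siRNA pool, blank removed, divided by geometric mean of two housekeeping genes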. Scale: BNIP3L mRNA: higher = more BNIP3L transcript after knockdown; NDRG1 mRNA: higher = more NDRG1 transcript after knockdown; BNIP3 mRNA: higher = more BNIP3 transcript after knockdown; ALDOC mRNA: higher = more ALDOC transcript after knockdown; ACSL5 mRNA: higher = more ACSL5 transcript after knockdown.
In all, the deposit lists about 14,000 reagents; this is a random part of them. Reagents against one gene are numbered here. Not given: the time to read-out.

target	reagent	BNIP3L mRNA, set 1	NDRG1 mRNA, set 1	BNIP3 mRNA, set 1	ALDOC mRNA, set 1	ACSL5 mRNA, set 1
CTPS2 (GeneID 56474)	1	0.0624	0.23	0.223	0.00866	0.208
DAG1 (GeneID 1605)	1	0.0861	0.114	0.269	0.0286	0.135
CFDP1 (GeneID 10428)	1	0.0985	0.267	0.417	0.0381	0.141
VAX2 (GeneID 25806)	1	0.0809	0.0954	0.211	0.0168	0.183
DGKQ (GeneID 1609)	1	0.0186	0.329	0.258	0.0137	0.169
EPX (GeneID 8288)	1	0.095	0.151	0.264	0.0198	0.108
ACTR10 (GeneID 55860)	1	0.157	0.121	0.227	0.044	0.192
RILP (GeneID 83547)	1	0.468	0.96	0.407	0.142	0.497
SPANXA2 (GeneID 728712)	1	0.252	1.5	0.415	0.0337	0.239
GSTK1 (GeneID 373156)	1	0.113	0.207	0.332	0.0187	0.21
ADD3 (GeneID 120)	1	0.117	0.172	0.265	0.0297	0.0799
PCGF3 (GeneID 10336)	1	0.102	0.0756	0.279	0.0143	0.0858
FSD1 (GeneID 79187)	1	0.131	0.42	0.41	0.0421	0.329
IFITM1 (GeneID 8519)	1	0.151	0.466	0.325	0.0849	0.473
MDH2 (GeneID 4191)	1	0.0923	0.355	0.332	0.0366	0.288
ALG12 (GeneID 79087)	1	0.054	0.294	0.201	0.0473	0.12
KXD1 (GeneID 79036)	1	0.0992	0.231	0.328	0.0583	0.268
ST7L (GeneID 54879)	1	0.257	0.306	0.57	0.0233	0.39
SRR (GeneID 63826)	1	0.116	0.325	0.268	0.0271	0.271
EDNRA (GeneID 1909)	1	0.0939	0.183	0.334	0.0305	0.0551
KRT35 (GeneID 3886)	1	0.129	0.1	0.321	0.02	0.123
STXBP6 (GeneID 29091)	1	0.119	0.202	0.274	0.036	0.142
ZNF10 (GeneID 7556)	1	0.101	0.0696	0.333	0.00721	0.142
BTBD10 (GeneID 84280)	1	0.154	0.209	0.11	0.159	0.217
GABRG3 (GeneID 2567)	1	0.0861	0.584	0.31	0.0243	0.309
HYPK (GeneID 25764)	1	0.123	0.278	0.74	0.0336	0.46
GAGE4 (GeneID 2576)	1	0.112	0.227	0.275	0.0287	0.201
STK11IP (GeneID 114790)	1	0.158	0.119	0.58	0.0291	0.0852
ACSS1 (GeneID 84532)	1	0.25	1.05	0.187	0.0393	0.187
GALNT2 (GeneID 2590)	1	0.0506	0.216	0.268	0.0275	0.168
HES1 (GeneID 3280)	1	0.127	0.215	0.4	0.0117	0.204

The list goes on; the last 9 above are carried over.
target	reagent	BNIP3L mRNA, set 1	NDRG1 mRNA, set 1	BNIP3 mRNA, set 1	ALDOC mRNA, set 1	ACSL5 mRNA, set 1
ZNF10 (GeneID 7556)	1	0.101	0.0696	0.333	0.00721	0.142
BTBD10 (GeneID 84280)	1	0.154	0.209	0.11	0.159	0.217
GABRG3 (GeneID 2567)	1	0.0861	0.584	0.31	0.0243	0.309
HYPK (GeneID 25764)	1	0.123	0.278	0.74	0.0336	0.46
GAGE4 (GeneID 2576)	1	0.112	0.227	0.275	0.0287	0.201
STK11IP (GeneID 114790)	1	0.158	0.119	0.58	0.0291	0.0852
ACSS1 (GeneID 84532)	1	0.25	1.05	0.187	0.0393	0.187
GALNT2 (GeneID 2590)	1	0.0506	0.216	0.268	0.0275	0.168
HES1 (GeneID 3280)	1	0.127	0.215	0.4	0.0117	0.204
IRAK3 (GeneID 11213)	1	0.175	0.122	0.429	0.00731	0.432
TRAF7 (GeneID 84231)	1	0.234	0.265	0.188	0.0365	0.496
RIN1 (GeneID 9610)	1	0.106	0.08	0.244	0.00154	0.201
FOXG1 (GeneID 2290)	1	0.138	0.365	0.27	0.0146	0.351
FOXG1 (GeneID 2290)	2	0.0312	0.151	0.213	0.0209	0.238
FST (GeneID 10468)	1	0.0714	0.0795	0.244	0.0215	0.0815
H1-1 (GeneID 3024)	1	0.129	1.08	0.439	0.0516	0.526
NLRP10 (GeneID 338322)	1	0.0589	0.0636	0.192	0.00844	0.118
CNKSR1 (GeneID 10256)	1	0.0979	0.187	0.629	0.01	0.288
JOSD1 (GeneID 9929)	1	0.0707	0.102	0.272	0.0189	0.193
SDCBP (GeneID 6386)	1	0.192	0.105	0.279	0.0309	0.175
HERC3 (GeneID 8916)	1	0.141	0.297	0.293	0.0281	0.212
ADORA1 (GeneID 134)	1	0.211	0.252	0.586	0.0326	0.266
RPS18 (GeneID 6222)	1	0.0503	0.304	0.472	0.0491	0.099
PLXDC1 (GeneID 57125)	1	0.186	0.21	0.698	0.155	0.437
OR51B2 (GeneID 79345)	1	0.357	0.444	0.633	0.0516	0.266
GAD1 (GeneID 2571)	1	0.0877	0.139	0.304	0.0152	0.279
TCEAL4 (GeneID 79921)	1	0.113	0.16	0.182	0.047	0.124
ATP8A1 (GeneID 10396)	1	0.183	0.14	0.36	0.0702	0.166
TRIP13 (GeneID 9319)	1	0.0795	0.0504	0.222	0.0201	0.177
EZR (GeneID 7430)	1	0.0933	0.12	0.253	0.00712	0.225
PSMA2 (GeneID 5683)	1	0.129	0.262	0.281	0.012	0.158
RWDD1 (GeneID 51389)	1	0.158	0.0897	0.478	0.0309	0.143
TCHP (GeneID 84260)	1	0.0989	0.206	0.198	0.0523	0.287
HSPBAP1 (GeneID 79663)	1	0.13	0.291	0.274	0.0383	0.206
GLUL (GeneID 2752)	1	0.137	0.129	0.361	0.0416	0.0855
LARP1B (GeneID 55132)	1	0.0571	0.243	0.177	0.037	0.114
ACTC1 (GeneID 70)	1	0.118	0.18	0.365	0.0519	0.159
INTS2 (GeneID 57508)	1	0.102	0.655	0.264	0.0989	0.14
PRAG1 (GeneID 157285)	1	0.0548	0.31	0.285	0.00495	0.154
B9D1 (GeneID 27077)	1	0.0745	0.229	0.257	0.0201	0.192
HAMP (GeneID 57817)	1	0.105	1.22	0.256	0.055	0.281
